Measured values: paper PMC5617977, “Antibacterial Activity and Toxicity of Analogs of Scorpion Venom IsCT Peptides” (Antibiotics, 2017)
Where no end group is shown, it is not given here.

Experiment: Circular dichroism, helical structure
Assay type: physicochemical
Conditions: three independent experiments; for % Helix 50% TFE: CD in 50% TFE in water; for % Helix Water: CD in water; for [θ]222 50% TFE / [θ]222 Water: CD; for [θ]222 50% TFE: mean residue molar ellipticity in 50% TFE in water; for [θ]222 Water: mean residue molar ellipticity in water

Substance	% Helix 50% TFE [%]	% Helix Water	[θ]222 50% TFE	[θ]222 Water [deg·cm^2·dmol^−1]
IFGAIWNGIKSLF-NH2 [IsCT2, reference compound]	22.0	Random	−9006.83 deg·cm^2·dmol^−1	−1242.43
ILGAAWNGAKSLF-NH2 [IsCT2A1, alanine substituted (positions 5 and 9) analog of IsCT2]	4.3	Random	−3633.66 deg·cm^2·dmol^−1	−89.92
ILGAVWNGVKSLF-NH2 [IsCT2V1, valine substituted (positions 5 and 9) analog of IsCT2]	14.0	Random	−6586.81 deg·cm^2·dmol^−1	−793.14
ILGKIWEGIKSLF-NH2 [IsCT1, reference compound]	30.2	Random	−11,484.85 deg·cm^2·dmol^−1	−2046.57
